Source: the supplement of paper PMC11006884
The list shows a part of the results, in another mix than the full data.

The chains behind the UniProt entries cited, without tags or fusion partners. Where a name states a change or a piece, a line headed by the entry shows the natural chain unless it says otherwise.
UniProt P62258: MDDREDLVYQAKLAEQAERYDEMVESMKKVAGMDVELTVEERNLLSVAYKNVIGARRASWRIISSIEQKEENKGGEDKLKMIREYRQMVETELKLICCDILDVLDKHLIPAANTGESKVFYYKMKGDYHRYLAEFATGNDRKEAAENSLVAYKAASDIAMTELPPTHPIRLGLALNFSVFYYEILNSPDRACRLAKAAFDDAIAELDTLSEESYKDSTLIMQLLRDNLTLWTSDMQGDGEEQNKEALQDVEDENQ
UniProt P55072, whole entry, looked up: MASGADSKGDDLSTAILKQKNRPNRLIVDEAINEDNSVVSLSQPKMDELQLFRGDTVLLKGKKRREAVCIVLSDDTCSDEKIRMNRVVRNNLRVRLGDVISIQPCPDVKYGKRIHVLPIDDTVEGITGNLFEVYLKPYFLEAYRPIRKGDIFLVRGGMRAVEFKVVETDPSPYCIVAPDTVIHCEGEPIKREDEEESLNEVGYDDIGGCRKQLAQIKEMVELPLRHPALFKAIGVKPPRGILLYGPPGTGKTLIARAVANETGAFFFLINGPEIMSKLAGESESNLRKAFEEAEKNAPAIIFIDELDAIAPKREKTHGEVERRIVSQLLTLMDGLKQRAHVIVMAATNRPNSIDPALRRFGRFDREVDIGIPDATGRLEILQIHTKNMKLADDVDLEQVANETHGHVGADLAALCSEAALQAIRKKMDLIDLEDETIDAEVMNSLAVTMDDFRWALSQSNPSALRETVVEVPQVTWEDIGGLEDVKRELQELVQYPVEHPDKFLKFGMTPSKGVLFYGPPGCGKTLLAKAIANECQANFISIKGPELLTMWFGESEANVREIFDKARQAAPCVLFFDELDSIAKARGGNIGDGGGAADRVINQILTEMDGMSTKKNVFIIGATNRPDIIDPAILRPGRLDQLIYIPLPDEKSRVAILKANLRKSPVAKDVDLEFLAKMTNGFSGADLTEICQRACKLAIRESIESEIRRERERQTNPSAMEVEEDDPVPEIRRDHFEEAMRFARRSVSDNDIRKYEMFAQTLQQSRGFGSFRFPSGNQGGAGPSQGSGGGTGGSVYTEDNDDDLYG
UniProt P52948: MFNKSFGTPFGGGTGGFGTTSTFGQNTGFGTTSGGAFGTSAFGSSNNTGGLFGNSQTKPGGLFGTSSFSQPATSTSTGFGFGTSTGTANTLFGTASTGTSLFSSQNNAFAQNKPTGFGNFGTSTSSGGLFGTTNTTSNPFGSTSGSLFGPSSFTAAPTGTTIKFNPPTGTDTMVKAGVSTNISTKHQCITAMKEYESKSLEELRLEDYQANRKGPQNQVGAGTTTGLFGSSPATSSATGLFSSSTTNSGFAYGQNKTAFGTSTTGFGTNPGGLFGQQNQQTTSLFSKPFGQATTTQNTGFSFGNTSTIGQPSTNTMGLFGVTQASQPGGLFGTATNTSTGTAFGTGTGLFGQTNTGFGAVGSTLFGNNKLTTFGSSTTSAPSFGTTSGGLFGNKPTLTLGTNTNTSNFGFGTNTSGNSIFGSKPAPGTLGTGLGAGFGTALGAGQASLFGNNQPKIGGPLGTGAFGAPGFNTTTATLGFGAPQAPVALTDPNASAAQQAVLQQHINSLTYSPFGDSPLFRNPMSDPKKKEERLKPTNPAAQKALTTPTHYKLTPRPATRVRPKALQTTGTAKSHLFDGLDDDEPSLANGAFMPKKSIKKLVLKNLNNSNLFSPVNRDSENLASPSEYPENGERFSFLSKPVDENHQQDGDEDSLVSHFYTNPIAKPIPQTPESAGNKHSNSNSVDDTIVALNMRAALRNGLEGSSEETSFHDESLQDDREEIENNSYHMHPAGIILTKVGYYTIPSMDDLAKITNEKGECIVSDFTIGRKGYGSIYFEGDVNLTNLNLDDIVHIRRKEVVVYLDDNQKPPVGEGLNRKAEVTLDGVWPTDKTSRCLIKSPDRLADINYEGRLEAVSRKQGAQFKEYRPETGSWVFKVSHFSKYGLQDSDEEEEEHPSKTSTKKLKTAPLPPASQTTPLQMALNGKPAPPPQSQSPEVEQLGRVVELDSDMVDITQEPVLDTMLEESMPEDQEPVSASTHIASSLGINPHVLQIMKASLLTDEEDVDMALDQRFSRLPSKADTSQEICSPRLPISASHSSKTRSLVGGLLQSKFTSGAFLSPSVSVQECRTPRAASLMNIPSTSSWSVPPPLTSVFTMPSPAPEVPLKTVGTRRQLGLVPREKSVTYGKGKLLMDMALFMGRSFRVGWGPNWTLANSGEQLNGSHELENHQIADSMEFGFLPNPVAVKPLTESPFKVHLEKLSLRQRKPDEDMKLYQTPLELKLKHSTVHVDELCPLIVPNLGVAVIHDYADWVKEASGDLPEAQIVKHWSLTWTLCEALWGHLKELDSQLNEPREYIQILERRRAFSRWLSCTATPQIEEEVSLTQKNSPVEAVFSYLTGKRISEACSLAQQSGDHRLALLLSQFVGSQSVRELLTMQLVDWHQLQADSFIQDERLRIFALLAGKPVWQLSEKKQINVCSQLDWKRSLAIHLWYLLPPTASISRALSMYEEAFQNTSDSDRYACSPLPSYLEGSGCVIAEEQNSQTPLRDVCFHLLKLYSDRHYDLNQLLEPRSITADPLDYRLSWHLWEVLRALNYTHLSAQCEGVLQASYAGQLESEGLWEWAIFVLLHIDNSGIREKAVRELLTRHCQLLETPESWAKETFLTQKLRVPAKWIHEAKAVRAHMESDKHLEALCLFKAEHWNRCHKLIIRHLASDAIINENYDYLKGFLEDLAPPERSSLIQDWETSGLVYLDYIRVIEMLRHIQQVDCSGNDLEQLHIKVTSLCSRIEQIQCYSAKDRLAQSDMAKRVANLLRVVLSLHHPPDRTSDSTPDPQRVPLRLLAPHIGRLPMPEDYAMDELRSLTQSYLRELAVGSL
UniProt P55209: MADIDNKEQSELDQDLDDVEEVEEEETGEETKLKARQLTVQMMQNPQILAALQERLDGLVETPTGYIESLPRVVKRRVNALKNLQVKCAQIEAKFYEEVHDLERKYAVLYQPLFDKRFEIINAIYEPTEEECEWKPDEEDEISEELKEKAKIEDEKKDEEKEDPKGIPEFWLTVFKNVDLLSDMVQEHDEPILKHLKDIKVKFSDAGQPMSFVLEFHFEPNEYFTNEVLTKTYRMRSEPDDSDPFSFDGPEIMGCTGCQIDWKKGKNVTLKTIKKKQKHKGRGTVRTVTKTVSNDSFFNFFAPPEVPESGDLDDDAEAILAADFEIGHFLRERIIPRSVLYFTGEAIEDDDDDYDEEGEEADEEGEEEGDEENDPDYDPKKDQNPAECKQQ
UniProt P52565: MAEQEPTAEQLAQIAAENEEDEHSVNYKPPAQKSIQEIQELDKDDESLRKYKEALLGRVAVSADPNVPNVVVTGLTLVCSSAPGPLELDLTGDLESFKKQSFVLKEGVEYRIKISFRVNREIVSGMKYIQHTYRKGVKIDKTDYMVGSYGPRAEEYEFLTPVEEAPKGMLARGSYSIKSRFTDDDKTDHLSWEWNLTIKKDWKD
UniProt P52789: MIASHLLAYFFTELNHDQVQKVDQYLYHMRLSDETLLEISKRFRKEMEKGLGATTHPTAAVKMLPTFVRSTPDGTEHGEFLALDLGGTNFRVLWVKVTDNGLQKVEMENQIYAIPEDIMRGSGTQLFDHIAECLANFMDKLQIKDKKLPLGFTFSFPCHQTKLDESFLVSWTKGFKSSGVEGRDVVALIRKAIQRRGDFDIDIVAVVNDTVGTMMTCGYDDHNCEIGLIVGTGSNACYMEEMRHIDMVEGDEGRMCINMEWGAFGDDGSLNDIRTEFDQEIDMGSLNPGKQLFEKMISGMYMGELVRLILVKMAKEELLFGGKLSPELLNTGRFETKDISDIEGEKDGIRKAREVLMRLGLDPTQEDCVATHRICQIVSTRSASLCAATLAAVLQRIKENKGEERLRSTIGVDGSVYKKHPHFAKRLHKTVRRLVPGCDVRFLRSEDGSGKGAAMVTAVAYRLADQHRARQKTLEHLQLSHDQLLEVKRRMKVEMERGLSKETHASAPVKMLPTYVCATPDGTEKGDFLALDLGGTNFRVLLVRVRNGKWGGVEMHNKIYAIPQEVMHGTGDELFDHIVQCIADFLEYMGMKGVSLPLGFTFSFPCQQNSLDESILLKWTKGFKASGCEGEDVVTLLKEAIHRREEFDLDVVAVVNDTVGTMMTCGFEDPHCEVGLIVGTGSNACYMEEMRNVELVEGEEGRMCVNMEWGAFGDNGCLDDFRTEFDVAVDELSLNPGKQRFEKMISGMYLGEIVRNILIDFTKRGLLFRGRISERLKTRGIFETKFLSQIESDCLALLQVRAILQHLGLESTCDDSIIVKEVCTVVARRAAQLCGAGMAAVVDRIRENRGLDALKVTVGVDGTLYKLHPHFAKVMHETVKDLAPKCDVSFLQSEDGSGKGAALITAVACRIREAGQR
UniProt P53350, whole entry, looked up: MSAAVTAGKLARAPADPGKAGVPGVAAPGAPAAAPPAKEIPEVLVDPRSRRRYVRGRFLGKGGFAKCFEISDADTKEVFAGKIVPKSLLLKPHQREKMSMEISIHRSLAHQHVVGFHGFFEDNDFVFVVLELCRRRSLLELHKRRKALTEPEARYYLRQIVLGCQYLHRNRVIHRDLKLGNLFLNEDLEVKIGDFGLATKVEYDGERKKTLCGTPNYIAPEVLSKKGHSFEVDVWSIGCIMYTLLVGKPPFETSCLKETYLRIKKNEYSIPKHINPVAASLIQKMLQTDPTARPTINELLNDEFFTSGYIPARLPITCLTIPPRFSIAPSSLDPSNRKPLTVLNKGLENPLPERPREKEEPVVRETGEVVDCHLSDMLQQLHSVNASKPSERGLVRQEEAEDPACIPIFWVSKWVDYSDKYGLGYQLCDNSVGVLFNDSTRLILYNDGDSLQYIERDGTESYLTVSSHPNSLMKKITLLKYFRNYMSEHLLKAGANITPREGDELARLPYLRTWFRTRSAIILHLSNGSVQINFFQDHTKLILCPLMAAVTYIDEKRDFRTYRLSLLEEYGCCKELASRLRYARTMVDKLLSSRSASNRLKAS
UniProt P55036: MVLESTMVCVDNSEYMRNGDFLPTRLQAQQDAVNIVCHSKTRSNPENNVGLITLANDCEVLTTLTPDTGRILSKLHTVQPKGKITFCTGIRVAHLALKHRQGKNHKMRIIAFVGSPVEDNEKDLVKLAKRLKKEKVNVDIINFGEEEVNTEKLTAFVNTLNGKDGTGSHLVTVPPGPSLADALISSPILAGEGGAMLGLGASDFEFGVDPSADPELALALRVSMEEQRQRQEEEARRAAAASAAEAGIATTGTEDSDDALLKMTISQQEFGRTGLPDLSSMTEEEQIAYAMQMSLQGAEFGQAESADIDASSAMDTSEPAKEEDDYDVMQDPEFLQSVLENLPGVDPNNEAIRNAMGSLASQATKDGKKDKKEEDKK
UniProt P55265: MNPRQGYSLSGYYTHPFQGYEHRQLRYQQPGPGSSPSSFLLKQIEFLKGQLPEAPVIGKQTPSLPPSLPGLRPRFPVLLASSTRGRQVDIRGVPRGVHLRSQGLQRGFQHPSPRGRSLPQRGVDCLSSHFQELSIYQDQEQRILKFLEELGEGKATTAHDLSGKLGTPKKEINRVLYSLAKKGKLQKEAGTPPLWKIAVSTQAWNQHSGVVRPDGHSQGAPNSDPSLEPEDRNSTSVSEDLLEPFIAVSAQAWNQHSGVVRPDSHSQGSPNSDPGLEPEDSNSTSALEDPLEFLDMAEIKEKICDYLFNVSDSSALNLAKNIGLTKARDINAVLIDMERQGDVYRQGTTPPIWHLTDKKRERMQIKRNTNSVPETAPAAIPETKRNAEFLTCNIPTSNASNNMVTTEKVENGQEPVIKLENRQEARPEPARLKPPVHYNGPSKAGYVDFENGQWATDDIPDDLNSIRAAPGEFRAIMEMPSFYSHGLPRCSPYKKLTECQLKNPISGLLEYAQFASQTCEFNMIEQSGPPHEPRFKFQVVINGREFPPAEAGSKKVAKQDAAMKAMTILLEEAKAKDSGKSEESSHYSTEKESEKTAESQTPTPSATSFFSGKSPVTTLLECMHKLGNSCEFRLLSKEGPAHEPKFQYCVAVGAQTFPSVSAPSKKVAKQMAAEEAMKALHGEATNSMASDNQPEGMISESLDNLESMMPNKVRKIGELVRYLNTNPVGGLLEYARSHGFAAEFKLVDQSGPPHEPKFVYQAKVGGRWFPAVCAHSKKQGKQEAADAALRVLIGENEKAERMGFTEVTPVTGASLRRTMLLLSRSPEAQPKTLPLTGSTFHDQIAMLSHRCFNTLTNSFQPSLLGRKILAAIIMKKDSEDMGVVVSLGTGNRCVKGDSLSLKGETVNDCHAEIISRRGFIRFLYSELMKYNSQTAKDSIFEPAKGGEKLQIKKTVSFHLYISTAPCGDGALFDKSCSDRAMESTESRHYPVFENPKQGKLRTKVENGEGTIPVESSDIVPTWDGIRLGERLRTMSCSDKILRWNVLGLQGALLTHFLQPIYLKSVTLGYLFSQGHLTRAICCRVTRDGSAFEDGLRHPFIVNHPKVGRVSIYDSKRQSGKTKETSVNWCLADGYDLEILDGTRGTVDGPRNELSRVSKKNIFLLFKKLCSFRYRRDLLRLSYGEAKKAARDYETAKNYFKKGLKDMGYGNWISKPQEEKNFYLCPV

Compound: COC(=O)C#Cc1ccccc1 [methyl 3-phenylpropiolate]
Experiment: log2 ratio of iodoacetamide-alkyne labeling of the cysteine site, DMSO over compound (competition); higher = stronger covalent engagement of the cysteine by the compound, active = 1 or more
Details: 500 µM; treatment time 1 h; system: HEK293T cell lysate
Method in brief: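 HEK293T lysate (2 mg/mL) was treated with DMSO or electrophile (500 µM, 1 h, ambient temperature), then iodoacetamide alkyne (1 h), clicked to sCIP-TMT reagents, pooled, trypsin-digested overnight at 37 °C, streptavidin-enriched and acid-eluted. Peptides were run on Orbitrap Eclipse LC-MS/MS with FAIMS and quantified in FragPipe. The log2 competition ratio per cysteine is mean control-channel over mean compound-channel reporter intensity. Duplicate channels and three replicates were used, and cysteines quantified in only one replicate were excluded.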

Question: With MSH6 C694 (UniProt P52701) as the target, how does the “log2 ratio of iodoacetamide-alkyne labeling” value (shortened to “log2 ratio”) read?
Answer: inactive: -0.35

Question: With COPA C453 (UniProt P53621) as the target, how does the “log2 ratio” value read?
Answer: inactive: 0.527

Question: UniProt P62258_C97 was tested. Which “log2 ratio” value did it give?
Answer: inactive: -0.063

Question: For THOP1 C18 (UniProt P52888), which “log2 ratio” value is on record?
Answer: inactive: 0.539

Question: Which “log2 ratio” value does the source give for EIF6 C110 (UniProt P56537) here?
Answer: inactive: 0.272

Question: Which “log2 ratio” value does the source give for UniProt P55072_C105 here?
Answer: inactive: -0.00692

Question: With RPS3A C96 (UniProt P61247) as the target, how does the “log2 ratio” value read?
Answer: inactive: 0.0695

Question: With MSH6 C1337 (UniProt P52701) as the target, how does the “log2 ratio” value read?
Answer: inactive: 0.14

Question: With NUP98 C1068 (UniProt P52948) as the target, how does the “log2 ratio” value read?
Answer: inactive: 0.537

Question: For NAP1L1 C88 (UniProt P55209), which “log2 ratio” value is on record?
Answer: inactive: -0.0373

Question: With ARHGDIA C79 (UniProt P52565) as the target, how does the “log2 ratio” value read?
Answer: inactive: -0.0733

Question: How did the “log2 ratio” value turn out when ACTR3 C235 (UniProt P61158) was run?
Answer: active: 1.28

Question: UniProt P55072_C535 was tested. Which “log2 ratio” value did it give?
Answer: inactive: 0.087

Question: Which “log2 ratio” value does the source give for UniProt P61077_C107 here?
Answer: inactive: 0.119

Question: DGKE C135 (UniProt P52429) was tested. Which “log2 ratio” value did it give?
Answer: inactive: 0.156

Question: How did the “log2 ratio” value turn out when HNRNPM C676 (UniProt P52272) was run?
Answer: inactive: 0.154

Question: How did the “log2 ratio” value turn out when PPP5C C404 (UniProt P53041) was run?
Answer: inactive: 0.194

Question: With PGD C289 (UniProt P52209) as the target, how does the “log2 ratio” value read?
Answer: inactive: 0.0113

Question: Which “log2 ratio” value does the source give for ALDH5A1 C340 (UniProt P51649) here?
Answer: inactive: 0.926

Question: DSTN C147 (UniProt P60981) was tested. Which “log2 ratio” value did it give?
Answer: inactive: 0.211

Question: For NCBP2 C81 (UniProt P52298), which “log2 ratio” value is on record?
Answer: inactive: 0.0517

Question: How did the “log2 ratio” value turn out when HK2 C628 (UniProt P52789) was run?
Answer: inactive: -0.0599

Question: With PMS2 C216 (UniProt P54278) as the target, how does the “log2 ratio” value read?
Answer: inactive: 0.722

Question: For PLK1 C212 (UniProt P53350), which “log2 ratio” value is on record?
Answer: inactive: 0.74

Question: With PSMD4 C58 (UniProt P55036) as the target, how does the “log2 ratio” value read?
Answer: inactive: -0.00877

Question: How did the “log2 ratio” value turn out when ALDH18A1 C88 (UniProt P54886) was run?
Answer: inactive: 0.288

Question: Which “log2 ratio” value does the source give for ADAR C851 (UniProt P55265) here?
Answer: inactive: -0.118

Question: AK2 C232 (UniProt P54819) was tested. Which “log2 ratio” value did it give?
Answer: inactive: -0.302

Question: How did the “log2 ratio” value turn out when UniProt P60842_C134 was run?
Answer: inactive: 0.0481

Question: For UniProt P61978_C184, which “log2 ratio” value is on record?
Answer: inactive: 0.0026

Question: ADAR C125 (UniProt P55265) was tested. Which “log2 ratio” value did it give?
Answer: inactive: 0.62

Question: ADAR C622 (UniProt P55265) was tested. Which “log2 ratio” value did it give?
Answer: inactive: 0.15

Question: UniProt P62241_C71 was tested. Which “log2 ratio” value did it give?
Answer: inactive: 0.335

Question: With EIF3B C384 (UniProt P55884) as the target, how does the “log2 ratio” value read?
Answer: inactive: 0.187

Question: For UniProt P55196_C942, which “log2 ratio” value is on record?
Answer: active: 1.05

Question: Which “log2 ratio” value does the source give for HK2 C794 (UniProt P52789) here?
Answer: inactive: 0.311
